Test results taken from patent US12545685B2 (Daiichi Sankyo Company, Limited, priority 2011, dated 2026).
Some of these results come from one statement about several compounds together. At least one compound was matched to its structure with a doubt left.

System: human lung cancer-derived cell line NCI-H460 having wild-type p53
Assay: Cell growth inhibition assay (MTT)
Type: cell-based
Settings: NCI-H460 cells, 3 days culture, values given as ranges, read-out: 50% growth inhibition concentration (GI50 value)
Experimental: A cell growth inhibition assay was conducted using a human lung cancer-derived cell line NCI-H460 having wild-type p53.
NCI-H460 cells were suspended in a medium (RPMI1640 medium containing 10% fetal bovine serum) and the suspension was added in an amount of 500 cells/150 μl/well to a 96-well plate. A test compound was dissolved in DMSO and this solution was diluted with medium to prepare a sample solution (DMSO concentration: 1% or lower). On the next day, medium nonsupplemented with the test compound, or the sample solution, was added in an amount of 50 μl/well. Cells were then cultured at 37° ° C. for 3 days in a 5% CO2 atmosphere.
An MTT assay was conducted immediately after the nonsupplemented medium or the sample solution was added. […]
A 5 mg/ml MTT (3-(4,5-dimethylthiazol-2-yl)-2,5-diphenyltetrazolium bromide, Sigma-Aldrich Co., M-2128) solution was prepared using a phosphate buffer solution (Dulbecco's Phosphate-buffered Saline). […] The absorbance of each well was measured at OD 540 nm and at a reference OD (660 nm) using a plate reader (SpectraMax PLUS384, Molecular Devices, CA, USA).
The OD value measured on the day of adding the sample solution was defined as S. The OD value measured three days after addition of the sample solution was defined as T. The OD value measured three days after addition of the DMSO dilution was defined as C. […]

CC1(C)CCC2(CC1)N[C@@H](C(=O)N[C@H]1CC[C@](O)(CO)CC1)[C@H](c1cccc(Cl)c1F)[C@]21C(=O)Nc2cc(Cl)ccc21 (relative stereo) [Example 31, (3′R, 4′S,5′R)-6″-chloro-4′-(3-chloro-2-fluorophenyl)-N-[cis-4-hydroxy-4-(hydroxymethyl)cyclohexyl]-4,4-dimethyl-2″-oxo-1″,2″-dihydrodispiro[cyclohexane-1,2′-pyrrolidine-3′,3″-indole]-5′-carboxamide]
GI50: < 100 nM
